In the supplement of paper PMC10331698:
± gives the standard deviation of the averaged measurements. Small differences around the control level are noise.

Tests used:
Assay in all cases: level (log10 ratio to DMSO vehicle control); higher = higher biomarker level / cell amount than vehicle control
Perfluoroheptanoic acid = compound: O=C(O)C(F)(F)C(F)(F)C(F)(F)C(F)(F)C(F)(F)C(F)(F)F [Perfluoroheptanoic acid]; conditions: in DMSO
Method: (§1)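 BioMAP Diversity Plus panel of 12 human primary cell co-culture systems (3C, 4H, LPS, SAg, BT, BF4T, BE3C, CASM3C, HDF3CGF, KF3CT, MyoF, Mphg). Compounds were added 1 h before stimulation and left for 24 h (MyoF 48 h; BT 72 h for soluble read-outs or 6 d for IgG). Biomarkers were read by ELISA, cytotoxicity by SRB, PBMC viability and proliferation by Alamar Blue. Each well value was divided by the mean of 8 DMSO control wells on the same plate and log10 transformed; duplicate blinded samples were tested at 4 concentrations.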

[1] = compound: FC(F)(F)C(F)(F)C(F)(F)C(F)(F)C(F)(F)C(F)(F)CC1CO1 [3-(Perfluorohexyl)-1,2-epoxypropane]; conditions: 2200 nM; in DMSO
Method: as §1

[2] = compound: NCC(F)(F)C(F)(F)C(F)(F)C(F)(F)C(F)(F)C(F)(F)C(F)(F)F [1H,1H-Perfluorooctylamine]; conditions: 2200 nM; in DMSO
Method: as §1

1-(Perfluorohexyl)octane = compound: CCCCCCCCC(F)(F)C(F)(F)C(F)(F)C(F)(F)C(F)(F)C(F)(F)F [1-(Perfluorohexyl)octane]; conditions: in DMSO
Method: as §1

[3] = compound: Cc1ccc(S(=O)(=O)OCC(F)(F)C(F)(F)C(F)(F)C(F)(F)C(F)(F)C(F)F)cc1 [1H,1H,7H-Perfluoroheptyl 4-methylbenzenesulfonate]; conditions: 2200 nM; in DMSO
Method: as §1

[4] = compound: CCN(CCO)S(=O)(=O)C(F)(F)C(F)(F)C(F)(F)C(F)(F)C(F)(F)C(F)(F)C(F)(F)C(F)(F)F [N-Ethyl-N-(2-hydroxyethyl)perfluorooctanesulfonamide]; conditions: in DMSO
Method: as §1

1H,1H-Heptafluorobutanol = compound: OCC(F)(F)C(F)(F)C(F)(F)F [1H,1H-Heptafluorobutanol]; conditions: 2200 nM; in DMSO
Method: as §1

Octafluoroadipic acid = compound: O=C(O)C(F)(F)C(F)(F)C(F)(F)C(F)(F)C(=O)O [Octafluoroadipic acid]; conditions: 2200 nM; in DMSO
Method: as §1

Heptafluorobutyramide = compound: NC(=O)C(F)(F)C(F)(F)C(F)(F)F [Heptafluorobutyramide]; conditions: 2200 nM; in DMSO
Method: as §1

[5] = compound: O=S(=O)(O)CCC(F)(F)C(F)(F)C(F)(F)C(F)(F)C(F)(F)C(F)(F)C(F)(F)C(F)(F)F [8:2 Fluorotelomer sulfonic acid]; conditions: in DMSO
Method: as §1

[6] = compound: O=C(O)C(F)(F)C(F)(F)C(F)(F)C(F)(F)C(F)(F)C(F)(F)C(F)(F)C(F)(F)C(F)(F)C(F)F [11-H-Perfluoroundecanoic acid]; conditions: 2200 nM; in DMSO
Method: as §1

[7] = compound: O=C(O)C(F)(F)C(F)(F)C(F)(F)OC(F)(F)F [Perfluoro(4-methoxybutanoic) acid]; conditions: 2200 nM; in DMSO
Method: as §1

[8] = compound: OCCC(F)(F)C(F)(F)C(F)(F)C(F)(F)C(F)(F)C(F)(F)F [6:2 Fluorotelomer alcohol]; conditions: 2200 nM; in DMSO
Method: as §1

Perfluoropentanoic acid = compound: O=C(O)C(F)(F)C(F)(F)C(F)(F)C(F)(F)F [Perfluoropentanoic acid]; conditions: in DMSO
Method: as §1

[9] = compound: CN(C(=O)C(F)(F)C(F)(F)C(F)(F)F)[Si](C)(C)C [N-Methyl-N-trimethylsilylheptafluorobutyramide]; conditions: 2200 nM; in DMSO
Method: as §1

[10] = compound: CC(C)(C)C(=O)CC(=O)C(F)(F)C(F)(F)C(F)(F)F [(Heptafluorobutanoyl)pivaloylmethane]; conditions: 2200 nM; in DMSO
Method: as §1

Test System	level (log10) (Perfluoroheptanoic acid; 2200 nM)	level (log10) (Perfluoroheptanoic acid; 6700 nM)	level (log10) (Perfluoroheptanoic acid; 20000 nM)	level (log10) (Perfluoroheptanoic acid; 60000 nM)	level (log10) [1]	level (log10) [2]	level (log10) (1-(Perfluorohexyl)octane; 740 nM)	level (log10) (1-(Perfluorohexyl)octane; 2200 nM)	level (log10) [3]	level (log10) ([4]; 2200 nM)	level (log10) ([4]; 6700 nM)	level (log10) ([4]; 20000 nM)	level (log10) (1H,1H-Heptafluorobutanol)	level (log10) (Octafluoroadipic acid)	level (log10) (Heptafluorobutyramide)	level (log10) ([5]; 2200 nM)	level (log10) ([5]; 6700 nM)	level (log10) ([5]; 20000 nM)	level (log10) ([5]; 60000 nM)	level (log10) [6]	level (log10) [7]	level (log10) [8]	level (log10) (Perfluoropentanoic acid; 2200 nM)	level (log10) (Perfluoropentanoic acid; 6700 nM)	level (log10) (Perfluoropentanoic acid; 20000 nM)	level (log10) (Perfluoropentanoic acid; 60000 nM)	level (log10) [9]	level (log10) [10]
MyoF:Decorin	0.012 ± 0.033	-0.0015 ± 0.013	0.036 ± 0.0042	0.0505 ± 0.035	0.013 ± 0.038	-0.025 ± 0.025	0.014 ± 0.014	0.002	0.0235 ± 0.0021	0.0025 ± 0.0064	-0.0095 ± 0.016	-0.085 ± 0.028	0.0145 ± 0.0064	-0.009 ± 0.011	-0.0575 ± 0.1	0.0305 ± 0.022	0.0555 ± 0.029	0.024 ± 0.03	-0.001 ± 0.0014	0.021 ± 0.04	-0.0795 ± 0.094	0.014 ± 0.037	-0.013 ± 0.0057	-0.015 ± 0.0028	-0.0125 ± 0.0092	0.005 ± 0.048	0.0055 ± 0.018	0.0135 ± 0.059
MyoF:MMP-1	0.008 ± 0.05	-0.0175 ± 0.0064	-0.0245 ± 0.011	0.021 ± 0.061	0.007 ± 0.067	0.021 ± 0.023	-0.0035 ± 0.029	-0.0105 ± 0.012	-0.0125 ± 0.015	0.0075 ± 0.016	0.069 ± 0.021	0.426 ± 0.052	0.0195 ± 0.063	-0.0015 ± 0.08	0.011 ± 0.021	-0.004 ± 0.064	-0.0245 ± 0.043	-0.0365 ± 0.028	0.0175 ± 0.005	-0.0065 ± 0.1	0.009 ± 0.044	0.0255 ± 0.091	0.0305 ± 0.076	-0.009 ± 0.02	-0.0215 ± 0.011	0.009 ± 0.071	-0.028 ± 0.017	0.0275 ± 0.1
MyoF:PAI-I	0.006 ± 0.021	0 ± 0.016	-0.0215 ± 0.023	0.0025 ± 0.018	0.01 ± 0.024	-0.0065 ± 0.021	0.0035 ± 0.00071	0.0015 ± 0.0035	0 ± 0.0042	0.0035 ± 0.005	-0.0065 ± 0.0064	-0.0085 ± 0.018	0.01 ± 0.0057	-0.0055 ± 0.015	0.0005 ± 0.013	0.0055 ± 0.0035	-0.008 ± 0.011	-0.009 ± 0.0042	0.0185 ± 0.019	0.015 ± 0.021	-0.006 ± 0.02	-0.0005 ± 0.0035	-0.005 ± 0.0014	-0.0035 ± 0.00071	0.005 ± 0.0071	0.0075 ± 0.0021	0.002 ± 0.028	-0.002 ± 0.013
MyoF:SRB	0.01 ± 0.017	-0.0005 ± 0.00071	0 ± 0.0085	-0.003 ± 0.021	0.0165 ± 0.029	-0.0075 ± 0.005	-0.0055 ± 0.018	0.009 ± 0.0042	0.0035 ± 0.005	-0.005 ± 0.0085	-0.0265 ± 0.00071	-0.175 ± 0.07	0.01 ± 0.0071	-0.001 ± 0.016	-0.0045 ± 0.005	-0.0005 ± 0.00071	-0.0005 ± 0.0021	-0.009 ± 0.0014	-0.0035 ± 0.0035	0.0095 ± 0.0078	-0.009 ± 0.014	0.0045 ± 0.015	0.0025 ± 0.025	0.003 ± 0.0028	-0.009 ± 0.0014	-0.004 ± 0.0057	0.006 ± 0.0071	0.007 ± 0.017
